# Values from PubChem BioAssay AID743121 (NCATS, 2013).
# Purpose: 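Knock-downs that sensitise breast cancer cells to camptothecin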 (primary screen)
# System: MDA-MB-231 cells, a human breast cancer line
# Reagent: single siRNA against human genes, 20 nM siRNA (0.8 pmol per well)
# Time to read-out: 120 h (drug added 48 h after transfection, read 72 h later)
# Challenge: camptothecin 20 nM (about EC30) for 72 h; vehicle 0.1% DMSO in parallel plates
# Detection: 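CellTiter-Glo ATP signal, scaled to control siRNA as percent viability; sensitisation given as log2 of untreated divided by camptothecin-treated viability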
# Reading the numbers: log2 vehicle/camptothecin viability: higher = stronger sensitisation to camptothecin; viability with camptothecin and viability without drug: higher = more viable cells
# Rule for the call: 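Each gene scored by redundant siRNA activity (RSA) over its individual siRNA ratios; a gene is called active at p < 0.001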
# In all, the deposit lists about 26,000 reagents; below is a part drawn at random. Over the whole deposit, 167 (0.63%) got an active call. 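Calls are per gene from RSA p-values that are not deposited; an individual active-marked siRNA can sensitise only weakly.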 Unmarked entries are inactive. The numbers tell different reagents against one gene apart. No sequences are given here.
gene,siRNA no.,log2 vehicle/camptothecin viability,viability with camptothecin (% of control),viability without drug (% of control)
SLC12A8,1,-0.315,64.2,51.6
SLC12A8,2,-0.528,61.5,42.7
SLC12A8,3,0.076,73.3,77.3
SLC12A8,4,-0.342,86.9,68.6
TRPM7,1,-0.319,86.7,69.5
TRPM7,2,0.527,28.6,41.2
TRPM7,3,-0.699,66.5,41
TRPM7,4,-0.67,90.9,57.1
UGT2B4 (UDP glucuronosyltransferase family 2 member B4),1,-0.0792,93.3,88.4
UGT2B4 (UDP glucuronosyltransferase family 2 member B4),2,-0.314,94.1,75.7
UGT2B4 (UDP glucuronosyltransferase family 2 member B4),3,-0.567,83.1,56.1
UGT2B4 (UDP glucuronosyltransferase family 2 member B4),4,-0.463,113,81.8
GRM5 (glutamate metabotropic receptor 5),1,0.167,86.2,96.8
GRM5 (glutamate metabotropic receptor 5),2,0.19,109,125
GRM5 (glutamate metabotropic receptor 5),3,-0.0195,42.9,42.3
GRM5 (glutamate metabotropic receptor 5),4,-0.108,95.4,88.5
DDIT3 (DNA damage inducible transcript 3),1,-0.491,73.8,52.5
DDIT3 (DNA damage inducible transcript 3),2,-0.183,108,95.5
DDIT3 (DNA damage inducible transcript 3),3,0.0426,90.8,93.5
DDIT3 (DNA damage inducible transcript 3),4,0.136,81.5,89.6
HDAC7 (histone deacetylase 7),1,-0.26,23.7,19.8
HDAC7 (histone deacetylase 7),2,-0.114,35.7,33
HDAC7 (histone deacetylase 7),3,-0.117,66.4,61.2
ZBED1 (zinc finger BED-type containing 1),1,-0.304,97.8,79.3
ZBED1 (zinc finger BED-type containing 1),2,-0.366,72.8,56.5
ZBED1 (zinc finger BED-type containing 1),3,-0.351,99.4,77.9
ZBED1 (zinc finger BED-type containing 1),4,-0.473,133,95.9
"GMDS (GDP-mannose 4,6-dehydratase)",1,-0.283,76.7,63
"GMDS (GDP-mannose 4,6-dehydratase)",2,-0.223,109,93
"GMDS (GDP-mannose 4,6-dehydratase)",3,-0.436,61.5,45.4
"GMDS (GDP-mannose 4,6-dehydratase)",4,0.138,89,98
MTO1 (mitochondrial tRNA translation optimization 1),1,-0.534,89.2,61.6
MTO1 (mitochondrial tRNA translation optimization 1),2,-0.0637,106,102
MTO1 (mitochondrial tRNA translation optimization 1),3,-0.198,116,101
MTO1 (mitochondrial tRNA translation optimization 1),4,-0.281,105,86.3
SACK1D (scaffolding CK1 anchoring protein D),1,-0.291,79.7,65.1
SACK1D (scaffolding CK1 anchoring protein D),2,-0.0853,103,97
SACK1D (scaffolding CK1 anchoring protein D),3,1.53,15,43.2
SACK1D (scaffolding CK1 anchoring protein D),4,0.111,70.8,76.5
LRP3 (LDL receptor related protein 3),1,-0.439,38.9,28.7
LRP3 (LDL receptor related protein 3),2,0.00899,108,109
LRP3 (LDL receptor related protein 3),3,-0.132,46.6,42.5
LRP3 (LDL receptor related protein 3),4,0.336,49.7,62.8

Sorted by “log2 vehicle/camptothecin viability” (highest first): some entries from above
gene,siRNA no.,log2 vehicle/camptothecin viability,viability with camptothecin (% of control),viability without drug (% of control)
SACK1D (scaffolding CK1 anchoring protein D),3,1.53,15,43.2
SACK1D (scaffolding CK1 anchoring protein D),4,0.111,70.8,76.5
MTO1 (mitochondrial tRNA translation optimization 1),2,-0.0637,106,102
SACK1D (scaffolding CK1 anchoring protein D),2,-0.0853,103,97
MTO1 (mitochondrial tRNA translation optimization 1),3,-0.198,116,101
MTO1 (mitochondrial tRNA translation optimization 1),4,-0.281,105,86.3
SACK1D (scaffolding CK1 anchoring protein D),1,-0.291,79.7,65.1
LRP3 (LDL receptor related protein 3),1,-0.439,38.9,28.7

Further records follow:
gene,siRNA no.,log2 vehicle/camptothecin viability,viability with camptothecin (% of control),viability without drug (% of control)
RARRES2 (retinoic acid receptor responder 2),1,-0.109,81.4,75.5
RARRES2 (retinoic acid receptor responder 2),2,-0.151,107,96.4
RARRES2 (retinoic acid receptor responder 2),3,-0.341,71.4,56.4
RARRES2 (retinoic acid receptor responder 2),4,-0.0768,76.8,72.8
CACNG2 (calcium voltage-gated channel auxiliary subunit gamma 2),1,-0.411,122,92.1
CACNG2 (calcium voltage-gated channel auxiliary subunit gamma 2),2,0.122,82.3,89.5
CACNG2 (calcium voltage-gated channel auxiliary subunit gamma 2),3,-0.143,94.9,86
CACNG2 (calcium voltage-gated channel auxiliary subunit gamma 2),4,0.0998,98.1,105
PTPN5 (protein tyrosine phosphatase non-receptor type 5),1,-0.468,93.9,67.9
PTPN5 (protein tyrosine phosphatase non-receptor type 5),2,-0.375,101,78
PTPN5 (protein tyrosine phosphatase non-receptor type 5),3,-0.471,102,73.7
PTPN5 (protein tyrosine phosphatase non-receptor type 5),4,-0.404,40.1,30.3
BCL2L10 (BCL2 like 10),1,-0.0062,52.8,52.5
BCL2L10 (BCL2 like 10),2,0.25,66.1,78.6
BCL2L10 (BCL2 like 10),3,-0.584,18,12
BCL2L10 (BCL2 like 10),4,0.917,51.1,96.4
NSMAF (neutral sphingomyelinase activation associated factor),1,-0.131,110,100
NSMAF (neutral sphingomyelinase activation associated factor),2,-0.173,111,98.1
NSMAF (neutral sphingomyelinase activation associated factor),3,-0.203,109,94.2
NSMAF (neutral sphingomyelinase activation associated factor),4,-0.0668,49.7,47.4
OR56B1 (olfactory receptor family 56 subfamily B member 1),1,0.874,23.7,43.5
OR56B1 (olfactory receptor family 56 subfamily B member 1),2,-0.531,101,69.9
OR56B1 (olfactory receptor family 56 subfamily B member 1),3,0.0189,73.4,74.4
OR56B1 (olfactory receptor family 56 subfamily B member 1),4,-0.384,62.6,48
SLC12A9,1,-0.0899,77,72.3
SLC12A9,2,-0.296,74.2,60.4
SLC12A9,3,-0.412,69.6,52.3
SLC12A9,4,-0.508,77.8,54.7
